# Laboratory results: PubChem BioAssay AID2417 (National Center for Advancing Translational Sciences (NCATS), 2010)
# The campaign covered roughly 140,000 compounds. About 4,300 (3.1%) were called active. The shares of active, inactive and inconclusive entries below differ from those in the screen.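 Rule for the calls: active = readout at or below -70, meaning at least 70% loss of cells showing the perinucleolar compartment, a nuclear body marking cancer cells; inconclusive = readout between -30 and a set limit; inactive = the rest.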
# Assay: High Content Assay for Compounds that inhibit the Assembly of the Perinucleolar Compartment;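 note: plate controls were DMSO wells for no effect and camptothecin positive control wells for full effect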
# Conditions: PC3M PTB-GFP, PNC prevalence imaging, 16 h; at 10 µM; active compounds read low
# Procedure, shortened: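 Read-out is percentage of cells bearing a perinucleolar compartment, from automated 20x imaging of fixed, Hoechst-stained PC3M PTB-GFP cells. Cells were seeded 4 h, then exposed 16 h to compound (23 nl of library stock) in duplicate plates.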
row,SMILES,"activity change (PNC), negative = inhibition"
1,COC(=O)c1cccc(NC(=O)c2nn(C)c(=O)c3ccccc23)c1,inconclusive: -46.9%
2,N#Cc1nc(-c2ccco2)oc1NCc1ccc(F)cc1,active: -82.4%
3,Cc1nn(C(=O)c2ccco2)c(C)c1Sc1ccc(Cl)cc1,inactive: 19.5%
4,COc1ccccc1-n1c(SCC(=O)O)nnc1-c1ccc(S(=O)(=O)N2CCCCC2)cc1,inconclusive: -41%
5,Cc1sc(NC(=O)c2cccs2)c(C(=O)OC(C)C)c1C,active: -100%
6,O=C1C(Nc2cccc(O)c2)=C(N2CCCCC2)C(=O)c2ccccc21,inactive: 47.2%
7,Cn1c2c(c(=O)c3ccccc31)CCC(C)(C)O2,inconclusive: -72.5%
8,O=C(O)CCC(=O)N1CCc2cc(S(=O)(=O)Nc3ccc4c(c3)OCCO4)ccc21,inactive: 19.2%
9,C/C(=N\NC(=O)CCCOc1ccc(Cl)cc1C)c1ccc(C)o1,inconclusive: -41%
10,COc1cc(C(=O)Nc2ccc(Oc3ncnc4sc(-c5ccccc5)cc34)cc2)cc(OC)c1OC,inconclusive: -51.5%
11,CCOC(=O)C1=C(CC)Nc2ccccc2N=C1NC(=O)Cn1cnc2ccccc2c1=O,inconclusive: -79.8%
12,COc1ccc(-c2[nH]ncc2Oc2ccccc2OC)c(O)c1,inconclusive: -67.3%
13,Cc1nn(C)cc1CNC(=O)c1ccccc1Br,inconclusive: -74.8%
14,COC(=O)Nc1ccccc1C(=O)N1CCC(O)(c2ccc(Cl)cc2)CC1,inconclusive: -35.6%
15,COc1ccc(-c2nnc3sc(-c4ccccc4OC)nn23)cc1,inconclusive: -31.3%
16,COc1cc(C(=O)O/N=C2/C=C(C)C(=O)C=C2C)cc(OC)c1OC,inactive: -19.6%
17,CCOC(=O)c1sc2ncnc(N3CCN(C(=O)OCC)CC3)c2c1C,inactive: 29.6%
18,COc1ccc(N(CC(=O)Nc2cc(Cl)ccc2OC)S(=O)(=O)c2c(C)noc2C)cc1,inconclusive: -71%
19,COc1ccc(OC)c(NC(=O)CSc2ncccc2C(=O)O)c1,inconclusive: -51.5%
20,Cc1ccc(C(=O)NCc2ccc(Cl)cc2)o1,inactive: -20.5%
21,CN(C)S(=O)(=O)N(CC(=O)Nc1ccc2ccccc2c1)c1ccccc1,inconclusive: -32.8%
22,Cc1ccnc(SCc2cc(=O)c(OC(=O)c3ccc(S(=O)(=O)N4CCCC4)cc3)co2)n1,inconclusive: -71.5%
23,CN(Cc1ccccc1)S(=O)(=O)c1cccs1,inconclusive: -36.6%
24,O=C(c1ccco1)n1nc(NCc2ccccc2)nc1NCc1ccccc1,inactive: -0.669%
25,CCCCNCC(=O)Nc1sc(C)c(C)c1C(=O)OCC,inconclusive: -34.7%

# Random excerpt: two compounds from above
row,SMILES,"activity change (PNC), negative = inhibition"
16,COc1cc(C(=O)O/N=C2/C=C(C)C(=O)C=C2C)cc(OC)c1OC,inactive: -19.6%
23,CN(Cc1ccccc1)S(=O)(=O)c1cccs1,inconclusive: -36.6%
